Experiment: Release of [3H]-oleic acid from labeled E. coli by melittin, effect of quenching method

**Q.** For `CC[C@H](C)[C@H](NC(=O)CN)C(=O)NCC(=O)N[C@@H](C)C(=O)N[C@H](C(=O)N[C@@H](CC(C)C)C(=O)N[C@@H](CCCCN)C(=O)N[C@H](C(=O)N[C@@H](CC(C)C)C(=O)N[C@H](C(=O)N[C@H](C(=O)NCC(=O)N[C@@H](CC(C)C)C(=O)N1CCC[C@H]1C(=O)N[C@@H](C)C(=O)N[C@@H](CC(C)C)C(=O)N[C@H](C(=O)N[C@@H](CO)C(=O)N[C@@H](Cc1c[nH]c2ccccc12)C(=O)N[C@H](C(=O)N[C@@H](CCCCN)C(=O)N[C@@H](CCCNC(=N)N)C(=O)N[C@@H](CCCCN)C(=O)N[C@@H](CCCNC(=N)N)C(=O)N[C@@H](CCC(N)=O)C(=O)N[C@@H](CCC(N)=O)C(N)=O)[C@@H](C)CC)[C@@H](C)CC)[C@@H](C)O)[C@@H](C)O)C(C)C)C(C)C` [Melittin], which “release of [3H]-oleic acid with increasing melittin” value (0° C., reaction quenched with cold PBS) is on record?
**A.** no release of [^3H]-oleic acid was observed

**Q.** What about the “release of [3H]-oleic acid with increasing melittin” value (HCl used to stop the reaction, 0° C. to 37° C.) of the same compound?
**A.** melittin-dependent increase in the release of [^3H]-oleic acid

Reference: patent US20030166548A1, “PLAP polypeptides and methods of producing and using same” (Board of Regents, The University of Texas System, priority 1997, published 2003)
